Record: PubChem BioAssay AID686937 (Drosophila RNAi Screening Center, 2013)
In all, the deposit lists about 23,000 reagents; this is an unselected part of those with a known target gene and a result. 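Reduced-secretion tags in replicate 1 do not always agree with the z-scores; no criterion for assigning the tags was given.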 Names joined by + are all predicted targets of the reagent. Further read-outs or replicates are left out here. Reagent sequences are not shown. Not stated in the record: the amount of reagent.

Aim: 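Genes whose loss weakens secretory pathway function in fly cells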 (primary screen)
Cell system: Drosophila S2 cells expressing secreted horseradish peroxidase
Reagents: long dsRNA against Drosophila genes
Time to read-out: about 5.5 days (5 days dsRNA, then 12 h reporter induction)
Challenge: reporter expression induced after 5 days of dsRNA, read 12 h later; inducer not stated
Measured: 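Chemiluminescent measurement of peroxidase in the medium 12 h after reporter induction, following 5 days of dsRNA, given as a z-score per plate; higher means more secretion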
Reading the numbers: z-score: higher = more reporter secreted into medium

For Hers + amn [DRSC20306], the values are z-score, replicate 1 = 0.17.
Dp1 (Dodeca-satellite-binding protein 1) [DRSC07403] showed z-score, replicate 1 = 0.33.
For AttA (Attacin-A) [DRSC05926], the values are z-score, replicate 1 = 0.42.
Silencing of CG16749 [DRSC15146] came out at: z-score, replicate 1 = 0.42.
Against trpl (transient receptor potential-like) [DRSC06728], the values are z-score, replicate 1 = 0.45.
With knock-down of trpl (transient receptor potential-like) [DRSC06729], the record shows z-score, replicate 1 = 0.05.
CG32563 [DRSC19934] gave z-score, replicate 1 = 0.22.
Knock-down of CG7044 [DRSC16180] resulted in: z-score, replicate 1 = 0.53.
For CG9168 [DRSC08633], the values are z-score, replicate 1 = 0.35.
Against Or22b (Odorant receptor 22b) [DRSC00765] the deposit lists z-score, replicate 1 = 0.2.
Knock-down of CG12490 [DRSC04123] gave: z-score, replicate 1 = 0.08.
After knock-down of CG12608 [DRSC19472], the screen gave z-score, replicate 1 = -0.12.
After knock-down of CG7772 [DRSC20056], the record shows z-score, replicate 1 = 0.25.
Depletion of CG32107 [DRSC09221] came out at: z-score, replicate 1 = 0.41.
Glo1 (Glyoxalase 1) [DRSC06657] showed z-score, replicate 1 = 0.45.
Knock-down of per (period) [DRSC18818] came out at: z-score, replicate 1 = 0.11.
For NAAT1 (Nutrient Amino Acid Transporter 1) [DRSC18300] the deposit lists z-score, replicate 1 = 0.41.
Against CG18477 + CG31780 [DRSC01955], the entry reads z-score, replicate 1 = 0.08.
For CCKLR-17D3 (Cholecystokinin-like receptor at 17D3) [DRSC20015], the entry reads z-score, replicate 1 = 0.7.
Knock-down of CCKLR-17D3 (Cholecystokinin-like receptor at 17D3) [DRSC20017] came out at: z-score, replicate 1 = 0.02.
With knock-down of CG30338 [DRSC05166] the results were z-score, replicate 1 = 0.44.
With knock-down of CG4393 [DRSC15573], the screen gave z-score, replicate 1 = 0.6.
For PCID2 (PCI domain-containing protein 2) [DRSC10822], the entry reads z-score, replicate 1 = -0.5.
Silencing of CG11263 [DRSC09832] came out at: z-score, replicate 1 = 0.21.
Against Irp-1A (Iron regulatory protein 1A) [DRSC16719], the entry reads z-score, replicate 1 = 0.19.
With knock-down of MtnB (Metallothionein B) [DRSC22744] the results were z-score, replicate 1 = 0.46.
After knock-down of Ntf-2 (Nuclear transport factor-2) [DRSC20552] the results were z-score, replicate 1 = -0.6.
